Measured data: PubChem BioAssay AID743121 (NCATS, 2013)
Screen: 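Genes whose silencing strengthens cell killing by camptothecin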 (primary screen). Cells: MDA-MB-231 cells, a human breast cancer line. Knock-down reagent: single siRNA against human genes, 20 nM siRNA (0.8 pmol per well). Timing: 120 h (drug added 48 h after transfection, read 72 h later). Conditions: camptothecin 20 nM (about EC30) for 72 h; vehicle 0.1% DMSO in parallel plates. Detection: 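Cell viability by ATP luminescence (CellTiter-Glo) as % of non-targeting siRNA wells, and the log2 ratio of viability without drug over viability with camptothecin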. Direction: log2 vehicle/camptothecin viability: higher = stronger sensitisation to camptothecin. Call rule: 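Active genes have an RSA gene-level p-value below 0.001, computed from the ratios of their separate siRNAs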.
The whole screen tested about 26,000 reagents; below is a random part of them. 167 of them (0.63%) count as active. 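Calls are per gene from RSA p-values that are not deposited; an individual active-marked siRNA can sensitise only weakly.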 The numbers tell different reagents against one gene apart. Further read-outs or replicates are left out here.

gene | siRNA no. | log2 vehicle/camptothecin viability | call
ATP4A (GeneID 495) | 1 | -0.388 | inactive
ATP4A (GeneID 495) | 2 | -0.908 | inactive
ATP4A (GeneID 495) | 3 | -0.482 | inactive
MORN1 (GeneID 79906) | 1 | -0.0216 | inactive
MORN1 (GeneID 79906) | 2 | 0.000155 | inactive
MORN1 (GeneID 79906) | 3 | 0.141 | inactive
MORN1 (GeneID 79906) | 4 | 0.147 | inactive
CHGA (GeneID 1113) | 1 | -0.251 | inactive
CHGA (GeneID 1113) | 2 | -0.27 | inactive
CHGA (GeneID 1113) | 3 | -0.117 | inactive
CHGA (GeneID 1113) | 4 | -0.201 | inactive

Targets above whose gene name starts with C or c (4):
gene | siRNA no. | log2 vehicle/camptothecin viability | call
CHGA (GeneID 1113) | 1 | -0.251 | inactive
CHGA (GeneID 1113) | 2 | -0.27 | inactive
CHGA (GeneID 1113) | 3 | -0.117 | inactive
CHGA (GeneID 1113) | 4 | -0.201 | inactive

Next records:
gene | siRNA no. | log2 vehicle/camptothecin viability | call
CA12 (GeneID 771) | 1 | 0.707 | inactive
CA12 (GeneID 771) | 2 | 0.0339 | inactive
CA12 (GeneID 771) | 3 | 1.06 | inactive
CA12 (GeneID 771) | 4 | 0.279 | inactive
TNR (GeneID 7143) | 1 | 0.0536 | inactive
TNR (GeneID 7143) | 2 | -0.000128 | inactive
TNR (GeneID 7143) | 3 | -0.549 | inactive
TNR (GeneID 7143) | 4 | 0.264 | inactive
GUCY1A1 (GeneID 2982) | 1 | 0.711 | inactive
GUCY1A1 (GeneID 2982) | 2 | -0.0626 | inactive
GUCY1A1 (GeneID 2982) | 3 | -0.472 | inactive
GUCY1A1 (GeneID 2982) | 4 | -0.468 | inactive
PDE9A (GeneID 5152) | 1 | -0.282 | inactive
PDE9A (GeneID 5152) | 2 | -0.0795 | inactive
PDE9A (GeneID 5152) | 3 | -0.0107 | inactive
PDE9A (GeneID 5152) | 4 | -0.344 | inactive
GPR25 (GeneID 2848) | 1 | -0.449 | inactive
GPR25 (GeneID 2848) | 2 | -0.317 | inactive
GPR25 (GeneID 2848) | 3 | 0.464 | inactive
GPR25 (GeneID 2848) | 4 | 0.0751 | inactive
